# Library screening results

The chains behind the UniProt entries cited, without tags or fusion partners.
UniProt E9BF75, entry or part of it: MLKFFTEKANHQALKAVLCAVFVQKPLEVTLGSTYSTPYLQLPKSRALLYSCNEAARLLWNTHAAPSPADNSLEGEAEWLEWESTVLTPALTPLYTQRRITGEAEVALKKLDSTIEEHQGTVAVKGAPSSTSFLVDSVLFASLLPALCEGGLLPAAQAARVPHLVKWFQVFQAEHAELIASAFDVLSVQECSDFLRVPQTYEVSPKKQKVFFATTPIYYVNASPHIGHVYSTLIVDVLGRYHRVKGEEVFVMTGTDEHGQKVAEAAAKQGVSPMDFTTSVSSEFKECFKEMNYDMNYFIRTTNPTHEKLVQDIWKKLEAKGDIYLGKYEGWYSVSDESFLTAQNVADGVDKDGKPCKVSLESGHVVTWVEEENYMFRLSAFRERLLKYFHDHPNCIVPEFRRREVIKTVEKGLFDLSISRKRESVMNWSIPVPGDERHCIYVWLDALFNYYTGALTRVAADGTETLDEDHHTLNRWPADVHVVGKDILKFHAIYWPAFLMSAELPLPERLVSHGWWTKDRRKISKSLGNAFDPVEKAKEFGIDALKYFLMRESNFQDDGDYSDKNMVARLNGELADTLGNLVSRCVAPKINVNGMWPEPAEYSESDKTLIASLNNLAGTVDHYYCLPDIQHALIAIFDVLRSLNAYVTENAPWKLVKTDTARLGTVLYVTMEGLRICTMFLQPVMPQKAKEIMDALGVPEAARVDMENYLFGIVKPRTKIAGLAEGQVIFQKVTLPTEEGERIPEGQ

Data taken from ChEMBL document CHEMBL3988442, “University of Dundee, Small-Polar-MMV Screening Library” (2021).

All values are in %. How 0% and 100% were set is not recorded. Most values in the screen are low, and negative values occur. Compounds were drawn at random from those tested, without regard to their results. A dash means the value is not listed here; it may have been measured.

Mtb heat-shock: 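Assay on Mycobacterium tuberculosis, filed only as a heat shock assay from Cornell; the read-out is not stated. The concentration is filed as 10 mM, unlikely as a test dose, so the dose is not known. Direction is inferred from retests: higher values go with stronger inhibition. About 69,000 compounds were tested under these conditions; 1.4% (about 930) showed 50% or more at least once.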
LdMetRS: 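Methionyl-tRNA synthetase (putative), Leishmania donovani (UniProt E9BF75). Primary screen of methionyl-tRNA synthetase; the read-out is not stated. The test concentration is not given. Values are per cent inhibition. Of about 68,000 compounds tested this way, about 24 (0.035%) reached 50% or more in at least one test.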
Mtb growth Cornell: 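Whole-cell assay for inhibitors of Mycobacterium tuberculosis growth, labelled Cornell in the record; the read-out is not stated. The concentration is filed as 10 mM, unlikely as a test dose, so the dose is not known. The record gives no direction; compounds strong in two other growth screens of this library score well above the rest, so higher reads as stronger inhibition. About 53,000 compounds were tested under these conditions; 1.7% (about 900) showed 50% or more at least once.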

* O=C1CC(NS(=O)(=O)N2CCOCC2)CN1Cc1ccccc1 (centres undefined) | Mtb heat-shock: 1.414%; LdMetRS: 11.42%
* CCn1ncc(CN2CCC(c3ncc(Cl)cc3S(C)(=O)=O)CC2)c1C | Mtb heat-shock: 14.48%; LdMetRS: 17.44%; Mtb growth Cornell: 50.49%
* CCCn1c(N2CCCC2)nc2c(C)nn(C)c2c1=O | Mtb heat-shock: 3.968%; LdMetRS: -3.769%
* Cn1ccnc1CN1CCN(Cc2noc(C3CC3)n2)CC1 | Mtb heat-shock: -15.41%; LdMetRS: 12.68%
* CN(C)C(=O)NC1COC2(CCN(Cc3ccccc3)CC2)C1 (centres undefined) | LdMetRS: -1.742%
* CC(C)Cc1n[nH]c(C2CC(=O)N(CC(C)C)C2)n1 (centres undefined) | Mtb heat-shock: -5.139%; LdMetRS: 1.117%; Mtb growth Cornell: -14.24%
* CC(=O)N(C)Cc1nn(C)c2c1CN(Cc1ccsc1)C2.O=C(O)C(F)(F)F.O=C(O)C(F)(F)F | Mtb heat-shock: -4.09%; Mtb growth Cornell: 1.158%
* CCc1nc2n(n1)CC(NCC1=Cc3ccc(OC)cc3OC1)CC2 (centres undefined) | Mtb heat-shock: 16.23%; LdMetRS: 8.13%; Mtb growth Cornell: 0.285%
* Cn1cc(CN2CCC3(CC2)CCN(C(=O)c2cscn2)C3)cn1.O=C(O)C(F)(F)F | Mtb heat-shock: -23.68%; Mtb growth Cornell: -15.07%
* CCC(NC(=O)c1ccoc1)c1ccccc1OCC(=O)N1CCCC1 (centres undefined) | Mtb heat-shock: 11.9%; LdMetRS: 13.22%
* COC(=O)[C@H]1CN(C(=O)c2cscn2)C[C@@H]1c1ccc(F)cc1 | Mtb heat-shock: -12.26%; LdMetRS: 9.032%; Mtb growth Cornell: -3.658%
* CN1CCN(C(=O)[C@H]2C[C@@H]3CN(c4ncc(F)cn4)C[C@@H]3N2C)CC1 | LdMetRS: 9.441%
* CN1CCC2(Cc3ccccc3CN(C(=O)CCN)C2)C1 (centres undefined) | Mtb heat-shock: -6.552%; LdMetRS: 1.143%
* CN(C)c1ccc(C(=O)N2CCCC2c2ccc(Cl)cc2)cc1 (centres undefined) | Mtb heat-shock: -3.419%; LdMetRS: 4.676%; Mtb growth Cornell: 15.03%
* Cc1cc(NCc2ccc(S(N)(=O)=O)cc2)nc(C)n1 | Mtb heat-shock: 7.009%; LdMetRS: 6.091%
* CC(=O)N1CCC(c2cncc(N3CCCC(O)C3)n2)CC1 (centres undefined) | Mtb heat-shock: -1.198%; LdMetRS: 15.43%; Mtb growth Cornell: 7.48%
* CCOCC1CN(Cc2ccccn2)Cc2nn(CC3CC3)cc21.O=C(O)C(F)(F)F.O=C(O)C(F)(F)F (centres undefined) | Mtb heat-shock: -24.37%; Mtb growth Cornell: 27.97%
* CC(c1ccccc1Cl)N(C(=O)CSCC(N)=O)C1CC1 (centres undefined) | Mtb heat-shock: -5.012%; LdMetRS: 1.229%; Mtb growth Cornell: 20.35%
* COCCCNC(=O)c1c(C)noc1C(C)C | Mtb heat-shock: 9.707%; LdMetRS: 17.05%
* O=c1n(Cc2ccccn2)nc(C2CCNCC2)n1Cc1ccccc1 | Mtb heat-shock: 19.58%; LdMetRS: 13.19%
* CN(C)c1ncccc1CNC(=O)N1CCCC1CN1CCCCC1 (centres undefined) | Mtb heat-shock: 11.13%; LdMetRS: 7.692%; Mtb growth Cornell: 11.41%
* O=C(CC1CC1)N1CCc2ncc(Cn3cncn3)n2CC1.O=C(O)C(F)(F)F | Mtb heat-shock: 6.026%; Mtb growth Cornell: -30.56%
* CC[C@@H](C)[C@@H](N)C(=O)Nc1cccc(-c2cnc(N)nc2)c1 | Mtb heat-shock: 1.808%; LdMetRS: 12.38%; Mtb growth Cornell: -76.69%
* Cn1cc(C(=O)NCc2cn3c(n2)CN(Cc2ccccn2)CC3)cn1.O=C(O)C(F)(F)F.O=C(O)C(F)(F)F | Mtb heat-shock: 7.198%; Mtb growth Cornell: 10.5%
* COc1ccc(CNC(=O)CCc2c(C)noc2C)cc1F | Mtb heat-shock: 9.611%; LdMetRS: 12.14%; Mtb growth Cornell: 5.405%
* COc1ccc(C[C@H]2CN(C(=O)c3cc(C)no3)CC[C@H]2OC)cc1 | Mtb heat-shock: 8.057%; LdMetRS: 24.09%; Mtb growth Cornell: 37.09%
* O=C(O)C(F)(F)F.O=C(O)C(F)(F)F.[H][C@@]12C[C@H](C(=O)NCC3CC3)N(C)[C@]1([H])CN(Cc1cccc(C#N)c1)C2 | Mtb heat-shock: 4.421%; Mtb growth Cornell: 31.84%
* COC(=O)CC(c1cccs1)c1oc(C)cc(=O)c1O (centres undefined) | Mtb heat-shock: -9.629%; LdMetRS: 4.885%; Mtb growth Cornell: 3.203%
* COc1ccc2cc(CN(C)C(C)c3nc(C(C)(C)C)no3)ccc2c1 (centres undefined) | Mtb heat-shock: -9.573%; LdMetRS: 8.871%; Mtb growth Cornell: -23.85%
* Cc1ccc(C(=O)Nc2nn[nH]n2)s1 | Mtb heat-shock: 15.42%; LdMetRS: 13.04%; Mtb growth Cornell: 36.61%
* O=C(c1ccccc1F)N1CCN(c2ccc(-n3cccn3)nn2)CC1 | Mtb heat-shock: 13.41%; LdMetRS: 1.449%; Mtb growth Cornell: -16.3%
* Cc1nc(C)n(CC2CCCN2Cc2cn3ccccc3n2)n1 (centres undefined) | Mtb heat-shock: -6.655%; LdMetRS: 21.68%; Mtb growth Cornell: -34.91%
* COCC(=O)N1CCC2(CC1)CNc1ccc(F)cc12.O=C(O)C(F)(F)F | Mtb heat-shock: -6.982%; Mtb growth Cornell: -5.313%
* OCc1cc2ccccc2nc1NCC1(O)CCC1 | Mtb heat-shock: -34.83%; LdMetRS: 21.35%; Mtb growth Cornell: 9.924%

The first 2 entries again:

| SMILES | Mtb heat-shock | LdMetRS | Mtb growth Cornell |
|---|---|---|---|
| `O=C1CC(NS(=O)(=O)N2CCOCC2)CN1Cc1ccccc1` (centres undefined) | 1.414 | 11.42 | - |
| `CCn1ncc(CN2CCC(c3ncc(Cl)cc3S(C)(=O)=O)CC2)c1C` | 14.48 | 17.44 | 50.49 |